In PubChem BioAssay AID493014 (National Center for Advancing Translational Sciences (NCATS), 2011):
This is one part of the list. These are further read-outs of the screen, such as a control signal, another cell line or another target. No call is given for them. The list favours compounds with an active or inconclusive main result. Words in brackets tell the shape of the fitted curve; partial curves, single points and poor fits give uncertain potencies.

Assay: qHTS Assay to Find Inhibitors of Chronic Active B-Cell Receptor Signaling
Conditions: ABC-DLBCL IkBa-CBG/CBR reporter, luminescence ratio (green luciferase fused to IkBa over red control in TMD8 lymphoma cells), 4 h
How it was run: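 Doxycycline induced both beetle luciferases in TMD8 lymphoma cells; IKK-driven degradation limits the IkappaBalpha-fused green signal, while red luminescence normalises for cell number and nonspecific effects. Compounds tested up to 46 uM, 4 hrs.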

[1] = measured here: CBR red luminescence, cell number
[2] = measured here: IkBa-CBG green luminescence

Compound	AC50 [1]	AC50 [2]
CCN(Cc1ccccc1)c1ccc(N=Nc2nn(C)c(C)c2[N+](=O)[O-])cc1	29.1 µM [rising, partial curve, poor fit]	–
CN(C)CCCN1c2ccccc2Sc2ccccc21	35.5 µM [falling, partial curve, poor fit]	–
N#CCc1nc(CSc2nc3ccccc3s2)cs1	3.26 µM [rising, full curve, poor fit]	–
O=C(Nc1ccc(Nc2ccccc2)cc1)c1c(F)c(F)c(F)c(F)c1F	1.12 µM [falling, full curve]	–
CCOC(=O)C1=C(O)C(=O)NC(c2ccccc2)=C(OCC)C1	23.1 µM [falling, single point]	–
COc1cc2ccccc2cc1C(=O)N(CCN(C)C)c1nc2c(F)cccc2s1	22.4 µM [falling, single point]	–
Cc1cc(N/N=C/c2cccc(Cl)c2)nc(NCc2ccccc2)n1	14.6 µM [rising, single point]	–
O=C(OCC(=O)N1CCCC1=O)c1cc(S(=O)(=O)N2CCOCC2)ccc1F	25.9 µM [falling, single point]	–
O=C(NCc1ccccc1C(F)(F)F)C1CC(c2cccc(F)c2)=NO1 (stereo not given)	3.16 µM [falling, full curve]	–
COc1ccc(N2CCN(C(=O)c3cn(Cc4ccccc4)nc3-c3cccnc3)CC2)cc1	6.51 µM [rising, full curve, poor fit]	–
O=C(NCCc1cccc(Cl)c1)c1ccc2c(c1)OCO2	12.6 µM [falling, single point]	–
COc1cccc(NS(=O)(=O)c2ccc(OC)c(OC)c2)c1	17.8 µM [rising, single point]	–
COc1ccc(C(F)(F)F)cc1N/C=C/c1nnnn1-c1ccc2ccccc2c1	12.6 µM [rising, single point]	–
Cc1cccc(NC(=S)N=Nc2c(O)[nH]c3ccccc23)c1	29.1 µM [falling, single point]	5.8 µM [falling, single point]
CSc1nc2sc3c(c2c(=O)n1-c1ccccc1C)CCCC3	35.5 µM [rising, single point]	–
Cc1ccc(NC2=CC(=O)CC(c3ccc(Cl)cc3)C2)cc1 (stereo not given)	32.6 µM [rising, partial curve, poor fit]	–
Cc1ccc(/C=N/n2c(C3CCCCC3)n[nH]c2=S)cc1	35.5 µM [rising, single point]	–
COc1ccc(NC(=O)CN(c2ccccc2OC)S(=O)(=O)c2cccs2)cc1Cl	3.26 µM [falling, partial curve, poor fit]	–
CCOc1c(Cl)cc(C(=O)Nc2ccccc2C(=O)O)cc1Cl	2.51 µM [falling, full curve, poor fit]	–
Cc1ccc2cc3c(NC(=O)CC(C)C)nn(C)c3nc2c1	0.794 µM [falling, full curve]	–
CC(C)(C)C(=O)N1CCN(c2nc3ccc(Br)cc3s2)CC1	25.1 µM [rising, partial curve, poor fit]	–

Two records picked at random from those above, as already listed:
Compound	AC50 [1]	AC50 [2]
CCOc1c(Cl)cc(C(=O)Nc2ccccc2C(=O)O)cc1Cl	2.51 µM [falling, full curve, poor fit]	–
Cc1ccc2cc3c(NC(=O)CC(C)C)nn(C)c3nc2c1	0.794 µM [falling, full curve]	–

The list continues:

Compound	AC50 [1]	AC50 [2]
O=C(Nc1sc(-c2ccccc2)cc1C(=O)O)c1ccccc1	6.31 µM [falling, partial curve, poor fit]	–
Clc1ccc(N/N=C/c2ccncc2)cc1Cl	2.06 µM [rising, full curve]	–
CC(=O)Nc1ccc(C(=O)OCc2ccc(Cl)c(Cl)c2)cc1	23.1 µM [rising, single point]	–
COc1cc(CNCCSc2nnnn2C)cc(Br)c1OCc1ccccc1	17.8 µM [falling, single point]	–
Cc1cc2c(cc1S(=O)(=O)N1CCN(c3ccc(Cl)cc3)CC1)OCCN2C	11.2 µM [rising, partial curve, poor fit]	–
COc1ccccc1NC(=O)Nc1nn(C)c2cccc(OC)c12	11.2 µM [falling, partial curve, poor fit]	–
COc1ccc2nc(SCC(=O)Nc3c(C)cc(C)cc3C)[nH]c2c1	11.2 µM [falling, partial curve, poor fit]	–
CCOc1cc(/C=C2\SC(=N)N(c3nccs3)C2=O)ccc1OCCN1CCOCC1	29.1 µM [rising, single point]	–
CCCCn1c(NCc2ccccc2O)nc2ccccc21	20.6 µM [falling, single point]	–
CNC(=O)/C(C#N)=C/c1ccc(-c2ccc(OC)cc2[N+](=O)[O-])o1	6.51 µM [falling, single point]	–
O=C(Nc1cc(C(F)(F)F)ccc1Cl)c1cccnc1	20 µM [rising, partial curve, poor fit]	–
COC(=O)Cc1c(C)nc2nc(-c3ccco3)[nH]n2c1=O	23.1 µM [falling, partial curve, poor fit]	–
O=C(CSc1nnc2c3ccccc3c3ccccc3c2n1)Nc1ccccc1F	1.41 µM [falling, full curve]	–
CC(=O)C1=C(C)NC(SCC(=O)c2cc(Cl)ccc2Cl)=C(C#N)C1c1ccco1 (stereo not given)	25.1 µM [falling, single point]	–
CC(=O)c1ccc(NC(=S)Nc2ccc(Br)c(Cl)c2)cc1	17.8 µM [rising, partial curve, poor fit]	–
CNC(=O)c1nnsc1S(=O)c1ccc(Cl)cc1 (stereo not given)	2 µM [falling, full curve]	4.47 µM [rising, full curve]
C=CCN1C(=O)N(c2ccc(Cl)cc2)C(=O)C1CC(=O)Nc1ccc(F)cc1 (stereo not given)	35.5 µM [falling, single point]	–
CCN1CCN(c2ncnc3c2cnn3-c2ccccc2)CC1	7.31 µM [rising, single point]	–
Cc1cccc(OCC(=O)N(Cc2ccc(C)o2)C2CCS(=O)(=O)C2)c1 (stereo not given)	4.47 µM [falling, partial curve]	–
Cc1ccc(/C=N/NC(=O)c2ccc3c(c2)OCCO3)s1	3.98 µM [falling, partial curve]	–
CCOc1ccccc1OCC(=O)N/N=C(\C)Cc1ccc(OC)cc1	29.1 µM [rising, single point]	10.3 µM [falling, partial curve]
